Results of single-concentration screens

From ChEMBL document CHEMBL3988442, “University of Dundee, Small-Polar-MMV Screening Library” (2021).

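Assay of Toxoplasma gondii numbers, read through their beta-galactosidase reporter with a colour substrate. Tested at 10 µM. Higher reads as fewer parasites (inferred from which compounds were picked for retests). Size under these conditions: about 67,000 compounds, about 260 of them at 50% or above in at least one test.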

The filed quantity is “Percent Effect” (%). The controls that fix the scale are not given in the record; negative values are as filed. The compounds are a random part of those screened.

SMILES	Percent Effect
CN(Cc1ccccc1)c1ncccc1CNC(=O)c1ccnn1C	3.226%
[H][C@@]12OCCN(C(=O)c3ccncn3)[C@@]1([H])CC[C@@H]2OCc1cccnc1	3.739%
Cc1cccc(C(=O)NCc2ccc(OCCN(C)C)cc2)c1C	9.82%
CN(C)c1ncc(CNC(=O)Nc2ccc(C(F)(F)F)cc2)n1C	17.07%
CC(CO)(NC(=O)Nc1nncs1)C1CCCCC1 (centres unmarked)	1.561%
Cc1nnc2n1CCN(C(=O)c1cc(Br)c[nH]1)C2	-13.38%
COc1ccc(-n2nnc(C(N)=O)n2)cc1	-2.305%
Cc1cnc(C(=O)N2CCC3(CC2)CC(c2ccccc2)C(=O)N3)cn1 (centres unmarked)	4.676%
CCn1c(C2CCN(C(=O)c3ccc4sc(C)nc4c3)CC2)n[nH]c1=O	-41.18%
COC(=O)C(C)(C)S(=O)(=O)c1ccc(Br)cc1	0.6732%
Cn1cnnc1-c1cncc(NCc2ccccc2Br)c1	6.503%
Cc1cc(C)n(CC(=O)N(CC2CN(C)CCO2)c2nccs2)n1 (centres unmarked)	7.143%
Cc1cc(N2CCc3c(ncn3C3CC3)C2)nc(N)n1	1.168%
CCCN1CCCC2(CCN(Cc3cncn3C3CCCC3)C2)C1=O (centres unmarked)	-28%
COc1ccc(CN2CCCn3nnc(COCC4CC4)c3C2)cc1.O=C(O)C(F)(F)F	1.467%
Cc1cc(C(=O)N(C)Cc2cccs2)nc(N2CCOCC2)n1	-10.44%
CCc1cccc(N2CCC(NC(=O)C3CCCO3)CC2)c1 (centres unmarked)	-9.789%
[H][C@]12CCN(S(=O)(=O)c3ccc(F)cc3)[C@@]1([H])CC[C@@H](COCC)O2	3.048%
CC(C)NC[C@H]1COCc2nc3cccnc3n21	-0.3695%
CCOC(C)C(=O)Nc1ccnn1-c1ccccc1C (centres unmarked)	24.12%
COCCNC1(c2ccc(Cl)cc2)CCOCC1	-8.776%
Cc1nc(N2CCN(C)CC2)ncc1C(=O)N1CCC(O)(CO)CC1	5.901%
O=C(NCC1CC(=O)N(CCc2ccccc2)C1)c1c(F)cccc1F (centres unmarked)	-8.021%
CN(C)c1cc(CNC(=O)c2ccc(=O)[nH]n2)ccn1	-2.185%
O=C(O)C(F)(F)F.[H][C@@]12CCCO[C@]1([H])[C@H](NC(=O)c1cscn1)CN2	16.27%
CN(C)C(=O)N1CC(C(=O)NCC2CC2)C2(CCOCC2)C1 (centres unmarked)	16.88%
c1ccc(Cn2ccnc2CNC2CCCOc3ccccc32)cc1 (centres unmarked)	-3.662%
CCC(C(=O)N1CCN(C(=O)N2CCOCC2)CC1)n1cccn1 (centres unmarked)	3.328%
O=C(O)C(F)(F)F.O=C(O)C(F)(F)F.[H][C@@]12COC[C@]1(CN1CCOCC1)CN(S(=O)(=O)c1cccnc1)C2	22.49%
O=C(NCCCn1cccn1)c1csc2c1CCCC2	-5.605%
[H][C@@]12CN(CC3CCOCC3)C[C@]1([H])OCCN2c1ccnc(N(C)C)n1	-4.43%
O=C(O)C(F)(F)F.[H][C@@]12CN(Cc3[nH]cnc3C)C[C@]1([H])OCCN2c1ncccn1	-12.99%
CC(=O)Nc1cccc(C(C)NCC2CCS(=O)(=O)CC2)c1 (centres unmarked)	16.7%
CC(C)c1noc(CN(Cc2cccnc2)C2CN3CCC2CC3)n1 (centres unmarked)	5.991%
CCOc1ncccc1CNC(=O)CN1CCCCCC1=O	19.46%
CN(Cc1nc(-c2ccccc2)no1)Cc1cnc(N2CCOCC2)s1	5.401%
Cc1ncc2c(n1)CN(CC(=O)Nc1nncs1)CC2	-0.4394%
Cc1cc(C(=O)NCC(O)c2c(Cl)cccc2Cl)nn1C (centres unmarked)	29.07%
O=C(NC1CC2(CCN(CCO)CC2)c2ccccc21)c1ccsc1.O=C(O)C(F)(F)F (centres unmarked)	3.937%
NS(=O)(=O)CCCC(=O)N1CCC2(CC1)c1ccccc1CC2O (centres unmarked)	-38.28%
CCOc1ccc([C@@H]2N[C@H](c3nccs3)Cc3ccsc32)cc1OC	20.39%
CCc1cccc(NC(=O)CCC(=O)N(C)Cc2nc(C)c[nH]2)c1	18.03%
O=C(CCc1nnc(-c2ccccc2)o1)N1CCCC1c1ccc[nH]1 (centres unmarked)	-2.277%
CO[C@@H]1CO[C@@]2(CCN(C(=O)COc3ccccc3C)C2)C1	-4.74%
COc1ccc(-c2n[nH]cc2CN2CCSCC2)c(OC)c1	-10.99%
CC(C(=O)N1CCN(C(=O)c2ccc(F)cc2)CC1)n1ccnc1 (centres unmarked)	-4.811%
CCNC(c1ccc(F)cc1)c1cccnc1 (centres unmarked)	6.355%
CC(NC(=O)Nc1ccc(S(C)(=O)=O)cc1)c1ccc2c(c1)CC(=O)N2 (centres unmarked)	9.708%
CC(C)c1cc2c(s1)NC(c1ccccc1)NC2=O (centres unmarked)	-12.01%
COCCNc1ccc(CNC(=O)C2COc3ccccc32)cc1 (centres unmarked)	-1.919%
NC(=O)CN1CCC(NC(=O)N2CCCC2c2ccsc2)CC1 (centres unmarked)	12.18%
CN1CC(C(=O)NC(C)(C)C)CC1=O (centres unmarked)	5.973%
CC(C)c1nc(CN(C)C(=O)CCS(=O)(=O)c2ccccc2)no1	16.16%
CN(C)C(=O)CC1CC2(CCN(c3ncccn3)CC2)c2ccccc21.O=C(O)C(F)(F)F (centres unmarked)	-4.259%
O=C(CN1CCN(c2ccnc3c(F)ccc(F)c23)CC1)NC1CC1	4.071%
CCN1CC(=O)c2sc(NC(C)C)nc2C1	-7.56%

Repeated from the top, 4 entries:

| SMILES | Percent Effect |
|---|---|
| `CN(Cc1ccccc1)c1ncccc1CNC(=O)c1ccnn1C` | 3.226% |
| `[H][C@@]12OCCN(C(=O)c3ccncn3)[C@@]1([H])CC[C@@H]2OCc1cccnc1` | 3.739% |
| `Cc1cccc(C(=O)NCc2ccc(OCCN(C)C)cc2)c1C` | 9.82% |
| `CN(C)c1ncc(CNC(=O)Nc2ccc(C(F)(F)F)cc2)n1C` | 17.07% |